The source of these data is the supplement of paper PMC12889115.

The list shows a part of the results. Values are raw readings; no control value is given beside them.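 Primary screen: polymyxin B was added at a level permeabilizing Salmonella outer membranes while sparing inner membranes. DMSO wells, both with and without polymyxin B, established maximum growth. Plate-to-plate variation meant each plate was ranked on its own, and the lowest-OD600 compounds were selected as hits.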

This experiment relates to Salmonella enterica serovar Typhimurium SL1344. Briefly: bacterial growth OD600 after 18 h with compound and polymyxin B; higher = more bacterial growth (less inhibition). Particulars: 50 µM, Mueller-Hinton broth.

For the molecule `CCOC(=O)N1CCN(C2CCCN(C3CCN(c4ccc(OC)cc4)CC3)C2)CC1` (stereo not given), for the setting “polymyxin B 1 µg/mL”, the “bacterial growth OD600” value worked out at 0.93.
As to `CC(C)Cc1noc(-c2ccc(N(C)CC3CCCCO3)nc2)n1` (stereo not given), the “bacterial growth OD600” value (polymyxin B 1 µg/mL) came out at 0.905.
Consider `C=Cc1ccc(C(=O)N2CCCC(Nc3ccc(F)cc3)C2)cc1` (stereo not given), for which the “bacterial growth OD600” value (polymyxin B 1 µg/mL) was 0.721.
On the same count and under the same terms, under `CCCCN(C)C(=O)c1nc2ccccn2c1CN(C)Cc1ccc(CC)cc1` stands 0.001; under `COCCN1CC(C(=O)NCc2cc(F)ccc2C)CCC1=O` (stereo not given), 0.85.
Turning to `Cc1nccn1-c1ccc(NC(=O)C2CCCN(CCCn3cccn3)C2)cc1` (stereo not given), the “bacterial growth OD600” value (polymyxin B 1 µg/mL) turned out to be 0.85.
With `O=C(NCc1ccc2c(c1)OCO2)c1ccc(N2CCC(NCCCN3CCCC3=O)CC2)cc1`, the “bacterial growth OD600” value (polymyxin B 0.75 µg/mL) amounted to 0.879.
Still for that read-out and setting: under `Cc1ccc(OCc2cc(C(=O)NCc3cn(C)nc3C)no2)cc1C` stands 0.691; under `COCCCN1C(=O)CC(CC(=O)N(C)Cc2n[nH]c3c2CCCC3)(c2ccccc2OC)C1=O` (stereo not given), 0.868.
Regarding `CCN(CC1CCN(CCc2ccccc2C)CC1)C(=O)c1cccnc1`, under “polymyxin B 1 µg/mL”, the “bacterial growth OD600” value is 0.864.
As for `CCn1nc(C)c(CNC2CCN(c3ccc(NC(=O)CCCCc4ccccc4)cc3)CC2)c1C`, the “bacterial growth OD600” value (polymyxin B 0.75 µg/mL) turned out to be 0.806.
In the case of `CS(=O)(=O)N1CCC2(CCCN(Cc3cccc(F)c3F)C2=O)C1` (stereo not given), under “polymyxin B 1 µg/mL”, the “bacterial growth OD600” value amounted to 0.858.
On to `Cc1cccc(C(=O)NC2CCCc3nc(-c4cccnc4)ncc32)n1` (stereo not given), for which the “bacterial growth OD600” value (polymyxin B 0.75 µg/mL) was 0.804.
In the case of `Cc1nc(C(=O)NCc2nc(-c3ccccc3NC(=O)CC3CCCC3)oc2C)cs1`, the “bacterial growth OD600” value (polymyxin B 0.75 µg/mL) worked out at 0.062.
Same read-out and setting: under `OCC1CCN(c2ncc3c(n2)CCCC3NCc2cc3ccccc3o2)CC1` (stereo not given) stands 0.634; under `CCc1nc(C)c(CN2CCCC(CNC(=O)c3cc(OC)cc(OC)c3)C2)[nH]1` (stereo not given), 0.836; under `CC(=O)NCc1ccc2[nH]c(C)c(C)c2c1`, 0.847.
On the same count and under the same terms, under `COc1ccc2c(c1)-c1nc(-n3ncc(C(=O)NCC(C)(C)N4CCOCC4)c3C)ncc1CC2` stands 1.06; under `OC1CCN(c2ccc(-c3nc(-c4cccc(Cl)c4)no3)cn2)CC1`, 0.276.
On to `CCN(CC)C(=O)c1coc(COc2ccc(F)cc2Cl)n1`, for which, where the note is “polymyxin B 1 µg/mL”, the “bacterial growth OD600” value was found to be 0.711.
